Out of some 350,000 compounds screened, about 6,000 (1.7%) were called active. Inconclusive results, whose numbers are uncertain, are shown with a selection of clear calls. Cut-off read from the data, not from the text of the source: active = CPE inhibition above about 20% (passing the limit was not always enough); inconclusive = no clear call, values can overlap the other calls; tested in BHK-21 cells.
experiment: protection of cells from dengue 2 killing – plate reader, single concentration, primary screen (AID 651640); settings: DENV2-infected cells, cytopathic effect rescue, at 9.99 µM, active compounds read high;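 note: 0% = median of neutral control wells and 100% = median of positive control wells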

SMILES	CPE inhibition
CCOc1ccc(CN(C)C(=O)c2ccc(NS(=O)(=O)c3ccc4[nH]c(=O)[nH]c4c3)cc2)cc1	inconclusive: 30.6%
O=C(NCCS(=O)(=O)NC1CCCC1)c1ccc(F)cc1	inconclusive: 57.8%
CCCNC(=O)N[C@H]1CC[C@@H](CCn2cc(C3CCCC3)nn2)O[C@@H]1CO	inactive: -10.5%
CC(C)NC(=O)N(C)C[C@@H]1OCCCC[C@H](C)Oc2ccc(NC(=O)Nc3ccc4c(c3)OCO4)cc2C(=O)N([C@H](C)CO)C[C@@H]1C	inconclusive: 61%
C[C@H](CO)N1C[C@H](C)[C@H](CN(C)C(=O)CCN(C)C)OCc2ccccc2-c2ccccc2C1=O	inactive: 0.438%
COc1ccc(S(=O)(=O)N2CCOCC2)cc1NC(=O)CSc1nnc(C2CC2)n1C1CC1	inactive: -1.33%
CO[C@H]1CN(C)C(=O)c2cc(NC(C)=O)ccc2OC[C@H](C)N(C(=O)c2cnccn2)C[C@H]1C	inconclusive: 30.6%
CN1C[C@@H]2C[C@@H](c3cccn3-c3nccs3)N3CCC[C@@]23C1=O	inconclusive: 20.9%
C[C@@H]1CN([C@H](C)CO)C(=O)c2cccc(NC(=O)C3CCOCC3)c2O[C@@H]1CN(C)C(=O)NC1CCCCC1	inactive: -8.93%
O=[N+]([O-])c1ccc(/C=C/c2ccc3cccc([N+](=O)[O-])c3n2)cc1	inconclusive: 21.7%
CCCCCCCNC(=O)C1(CC2CC(c3cccc(Br)c3)=NO2)CCNCC1 (stereo not given)	inconclusive: 28.8%
O=C(COC(=O)c1ccccc1O)NCc1ccco1	inconclusive: 31.5%
O=C(CSCc1ccc([N+](=O)[O-])cc1)Nc1ccc(S(=O)(=O)N2CCCCCC2)cc1	active: 79.7%
C[C@H]1CN([C@@H](C)CO)C(=O)c2cccc(NC(=O)C3CCOCC3)c2O[C@H]1CN(C)S(=O)(=O)c1ccccc1	inactive: 2%
O=C1NC2c3ccccc3CC2O1 (stereo not given)	inconclusive: 35%
C[C@H](CO)N1C[C@H](C)[C@@H](CN(C)Cc2ccccc2)Oc2ccc(NC(=O)Nc3ccccc3)cc2CC1=O	active: 24.8%
O=C(Nc1ccc2c(c1)[C@@H]1C[C@@H](CC(=O)N3CCCCC3)O[C@@H](CO)[C@@H]1O2)NC1CCCC1	inactive: 10%
Cc1ccccc1S(=O)(=O)N1CC(=O)N2[C@@H](CO)[C@@H](c3ccc(C#CCN(C)C)cc3)[C@@H]2C1	inconclusive: 22.7%
O=S(=O)(N[C@H]1CC[C@@H](CCn2cc(Cc3ccccc3)nn2)O[C@H]1CO)c1ccccc1F	inconclusive: 33.1%
O=C(NNS(=O)(=O)c1ccc(Br)cc1)c1ccccc1-n1cccc1	inconclusive: 22.6%
C[C@H]1[C@@H](c2ccccc2)Oc2ccc(Cl)cc2S(=O)(=O)N1Cc1cccc(F)c1	inconclusive: 24.3%
COCC(=O)Nc1ccc2c(c1)C(=O)N(C)C[C@H](OC)[C@@H](C)CN(Cc1ccccc1)[C@@H](C)CO2	active: 26.2%
COc1ccc(N2C(=O)C3C(C2=O)C3(c2ccccc2)c2ccccc2)cc1 (stereo not given)	inconclusive: 31.7%
Cc1coc2c(C)c3oc(=O)c(CCC(=O)NCCN4CCOCC4)c(C)c3cc12	inconclusive: 35.3%

SMILES	CPE inhibition
CC(=O)N1CCCCN2[C@H](CO)[C@@H](c3ccc(C#Cc4ccccc4F)cc3)[C@H]2C1	active: 24.4%
O=C(NCc1ccc2c(c1)OCO2)C(=O)NCC1OCCCN1S(=O)(=O)c1ccccc1 (stereo not given)	active: 40.7%
COCC(=O)N1[C@H](CO)[C@H]2c3ccccc3NC[C@H]21	active: 31.9%
Cc1c(NC(=O)COC(=O)c2ccc[nH]c2=O)c(=O)n(-c2ccccc2)n1C	inconclusive: 24%
COC(=O)c1ccc(OC)c(Cn2c(=O)n(C)c(=O)c3ccccc32)c1	inconclusive: 26.3%
CC(=O)Nc1cccc(C(=O)N2CCC(n3nccc3NC(=O)CC(C)C)CC2)c1	inconclusive: 30.5%
Cc1ccccc1CN1[C@@H](C)[C@H](c2ccccc2)Oc2cccc(N3CCCC(C)C3)c2S1(=O)=O (stereo not given in full)	inconclusive: 23.5%
Cc1ccc(S(=O)(=O)N(C)C[C@@H]2Oc3ccc(NC(=O)Nc4ccc(F)cc4)cc3CC(=O)N([C@H](C)CO)C[C@@H]2C)cc1	inactive: 2.09%
C[C@@H]1CCCCO[C@H](CN(C)Cc2ccc3c(c2)OCO3)[C@@H](C)CN([C@@H](C)CO)C(=O)c2cc(NC(=O)c3ccncc3)ccc2O1	inconclusive: 59.5%
O=S1(=O)CC(N2CCCC2)CN1CCc1ccccc1 (stereo not given)	inconclusive: 30.7%
Fc1ccccc1C1c2[nH]c3ccccc3c2CCN1CCCn1cccn1 (stereo not given)	active: 31.3%
CO[C@@H]1CN(C)C(=O)c2cc(NC(=O)C3CC3)ccc2OC[C@H](C)N(Cc2ccc(F)cc2)C[C@H]1C	inactive: 0.0175%
O=C1CSc2cc(Cl)ccc2N1	inconclusive: 33.8%
Cc1noc(C)c1NC(=O)Nc1ccc2c(c1)C(=O)N([C@@H](C)CO)C[C@@H](C)[C@@H](CN(C)Cc1ccccc1)OCCCC[C@@H](C)O2	active: 88.8%
Cc1ccc(NC(=O)COc2ccc3c(c2)OCO3)c(Cl)c1	inconclusive: 51.7%
O=[N+]([O-])c1cc([N+](=O)[O-])c(Oc2c(Cl)cccc2Cl)cc1NN1CCCCC1	inconclusive: 43.6%
O=C(C[C@H]1C=C[C@@H](NC(=O)CC2CC2)[C@@H](CO)O1)NCc1ccccc1	inactive: 7.66%
C[C@@H]1CN([C@@H](C)CO)C(=O)c2cc(C3=CCCC3)cnc2O[C@@H]1CN(C)C(=O)CN1CCOCC1	inactive: 1.49%
CCCN(C)C[C@@H]1Oc2cc(C#CC3(O)CCCC3)ccc2S(=O)(=O)N([C@@H](C)CO)C[C@@H]1C	inconclusive: 19.4%
COc1ccc(-n2nc(C(=O)NCC(=O)NC3CCCCCC3)c3ccccc3c2=O)cc1OC	inconclusive: 35.7%
Cc1cc(C)n(-c2ccc(NC(=O)C3CCCCN3C(=O)c3ccoc3)cc2)n1 (stereo not given)	active: 35.6%
CCCCCCSc1cc(-c2nc3ccc(C)cn3c2NCc2ccccc2)ccc1OC	inconclusive: 21.5%
CCCNC(=O)C1(C)CCCN(C(=O)c2ccc3c(c2)CCO3)C1 (stereo not given)	inconclusive: 28.1%
COC(=O)C[C@H]1CC[C@@H]2[C@H](COC[C@H](O)CN2C(=O)Nc2ccccc2OC)O1	inactive: -0.0815%

SMILES	CPE inhibition
C[C@@H]1CN([C@@H](C)CO)S(=O)(=O)c2ccc(C#CCC3CCCC3)cc2O[C@H]1CN(C)Cc1ccc(C(=O)O)cc1	inconclusive: 33.5%
Cc1noc(C)c1S(=O)(=O)Nc1ccc2c(c1)C(=O)N([C@H](C)CO)C[C@H](C)[C@H](CN(C)C(=O)C1CCCCC1)OCCCC[C@@H](C)O2	active: 46.8%
Oc1ccc(-c2nc3ccccc3nc2-c2ccc(O)cc2O)c(O)c1	inconclusive: 46.8%
O=C(C[C@@H]1C=C[C@@H](NC(=O)CN2CCOCC2)[C@@H](CO)O1)NCCc1ccncc1	inactive: 0.137%
CN(C)/C=C/C(=O)c1ccc2noc(-c3cccc(F)c3)c2c1	inconclusive: 29.7%
CC(Oc1cccc(Cl)c1)C(=O)Nc1cc(S(=O)(=O)N2CCOCC2)ccc1N1CCCCC1 (stereo not given)	inconclusive: 26.3%
C[C@H]1CCCCO[C@@H](CN(C)Cc2ccc3c(c2)OCO3)[C@@H](C)CN([C@@H](C)CO)C(=O)c2cc(NC(=O)Nc3ccc(F)cc3)ccc2O1	active: 23%
O=C(C[C@@H]1CC[C@@H](NS(=O)(=O)c2ccccc2)[C@@H](CO)O1)N1CCN(c2ccccc2)CC1	inactive: -6.04%
Cc1noc(C)c1NC(=O)N(C)C[C@@H]1OCc2ccccc2-c2c(n(C)c3ccccc23)C(=O)N([C@@H](C)CO)C[C@H]1C	inconclusive: 40.6%
C[C@H](CO)N1C[C@H](C)[C@H](CN(C)C(=O)Nc2ccc(C(F)(F)F)cc2)Oc2c(NS(=O)(=O)c3ccc(Cl)cc3)cccc2C1=O	inactive: 15.6%
C[C@H](NC(=O)C[C@@H]1C=C[C@@H](NC(=O)CN2CCOCC2)[C@@H](CO)O1)c1ccccc1	inconclusive: 63.4%
COc1ccc(S(=O)(=O)N[C@@H]2C=C[C@H](CC(=O)N3CCC(Cc4ccccc4)CC3)O[C@@H]2CO)cc1	inactive: -3.46%
CC(=O)NC[C@@H]1[C@@H](c2ccc(-c3ccccc3)cc2)[C@@H](CO)N1C(=O)C1CC1	inactive: -15.9%
COCC(=O)N1[C@@H](CO)[C@@H]2c3ccccc3N(C(=O)Nc3ccccc3Cl)C[C@@H]21	inconclusive: 37.8%
CCC(=O)N[C@H]1C=C[C@@H](CC(=O)NCc2ccccc2F)O[C@@H]1CO	inconclusive: 20.2%
Cn1cnc(S(=O)(=O)N[C@@H]2C=C[C@@H](CC(=O)NCC3CC3)O[C@H]2CO)c1	inconclusive: 36.2%
O=C(C[C@@H]1CC[C@H]2[C@@H](COC[C@H](O)CN2C(=O)c2ccccc2F)O1)N1CCOCC1	inactive: -5.52%
C[C@@H]1CN([C@H](C)CO)C(=O)c2cc(N(C)C)ccc2O[C@@H](C)CCCCO[C@@H]1CN(C)C(=O)CCC(F)(F)F	active: 106%
Cn1cccc1C1C=C(c2ccc(C(C)(C)C)cc2)Nc2ncnn21 (stereo not given)	inconclusive: 20.7%
CCC1CCCCN1S(=O)(=O)c1ccc2[nH]c(=O)ccc2c1 (stereo not given)	inconclusive: 22.1%
C[C@@H]1CN([C@@H](C)CO)C(=O)c2cccc(NC(=O)Nc3ccccc3)c2O[C@@H]1CN(C)S(=O)(=O)c1ccc(Cl)cc1	inactive: 8.84%
COc1ccc(CNC(=O)COC(=O)c2cncc(Br)c2)cc1	inactive: 4.17%

Look-ups from above:
Value for `O=C(C[C@@H]1CC[C@@H](NS(=O)(=O)c2ccccc2)[C@@H](CO)O1)N1CCN(c2ccccc2)CC1` under CPE inhibition: inactive: -6.04%
Value for `Cc1noc(C)c1NC(=O)N(C)C[C@@H]1OCc2ccccc2-c2c(n(C)c3ccccc23)C(=O)N([C@@H](C)CO)C[C@H]1C` under CPE inhibition: inconclusive: 40.6%

Source: PubChem BioAssay AID651640 (Broad Institute, 2012)
